Test results: PMC7819943, “Rice protein-binding microarrays: a tool to detect cis-acting elements near promoter regions in rice”
The other results are listed elsewhere or left out.

biological target: T1, OsSMF1 (Oryza sativa, UniProt Q6ZLB0 1-436); assay: protein-binding microarray (RPBM); PBS, 2% BSA, 51.3 ng/ul salmon testes DNA, 50 uM zinc acetate, 200 nM TF, 25 C, 1 h; high values mean tight binding; settings: protein: recombinant; tags: N-terminal polyhistidine and DsRed monomer fusion (pET32a); chain copies: 2; label: CyDye5-dUTP incorporated in the synthesized complementary strand; 3' TTTTT single-stranded linker to array surface; dsDNA, one strand shown
T1 sequence: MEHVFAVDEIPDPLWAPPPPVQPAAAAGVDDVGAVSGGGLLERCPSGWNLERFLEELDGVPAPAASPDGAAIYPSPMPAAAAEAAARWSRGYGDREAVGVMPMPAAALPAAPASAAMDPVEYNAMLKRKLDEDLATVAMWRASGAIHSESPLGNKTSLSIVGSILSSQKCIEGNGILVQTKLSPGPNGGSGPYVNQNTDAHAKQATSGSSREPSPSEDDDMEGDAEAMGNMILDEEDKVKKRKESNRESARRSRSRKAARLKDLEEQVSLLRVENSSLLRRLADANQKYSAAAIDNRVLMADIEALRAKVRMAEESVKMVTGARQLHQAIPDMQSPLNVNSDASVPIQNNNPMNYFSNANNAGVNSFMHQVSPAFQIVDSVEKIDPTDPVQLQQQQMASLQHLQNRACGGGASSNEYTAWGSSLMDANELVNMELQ
Method in brief: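 The binding signal is fluorescence intensity per feature, in arbitrary units, read on an Axon 4000B scanner. Polyhistidine- and DsRed-tagged transcription factors (N-terminal fusions) from E. coli BL21-CodonPlus were purified on Ni–NTA and applied at 200 nM for 1 h at 25 °C to a double-stranded, BSA-blocked custom Agilent array in buffer with 50 µM zinc acetate.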

Row | Sequence | binding signal
1 | CTTCCAAGCCCTCCACCTCCTCGTCCCCTGGTACGGGTGTCGGAGTCACCTAGTGCAG | 3220 fluorescence intensity (a.u.)
2 | AGGAAACACGGGAAAGAAAGAGGTGATGACGTGGATAGTCCGGAGTCACCTAGTGCAG | 23300 fluorescence intensity (a.u.)
3 | CACCACCCTAAATGGAATAAGAAAATTCTTATTTGTGAATCGGAGTCACCTAGTGCAG | 3440 fluorescence intensity (a.u.)
4 | AATATGTATCAAGGGACCATGACATATCTAACCTCGATCTCGGAGTCACCTAGTGCAG | 3700 fluorescence intensity (a.u.)
5 | GCGGGCCTCGCGGCCACATCCATCAAACCACGGGAAAGATCGGAGTCACCTAGTGCAG | 3460 fluorescence intensity (a.u.)
6 | ACTGTTTAGTAGATGTTTGGTGTTGAGCTGGATGTGGAGACGGAGTCACCTAGTGCAG | 3810 fluorescence intensity (a.u.)
7 | CGGTGGGTGAGCACGGCTGCGGAGAGGCGGCGTCAGCAGGCGGAGTCACCTAGTGCAG | 4840 fluorescence intensity (a.u.)
8 | CCAAAATTACCATCTCATGACTCATTCCTTCAATCATCATCGGAGTCACCTAGTGCAG | 9710 fluorescence intensity (a.u.)
9 | CCTGAAAATATTTGGTTCAATTATTGAACTCGAGGTACCTCGGAGTCACCTAGTGCAG | 19100 fluorescence intensity (a.u.)
10 | TGCTCAGCTCGTCGGGACAAGGGGATCTCGTCCCGATAGGCGGAGTCACCTAGTGCAG | 3300 fluorescence intensity (a.u.)
11 | ATTAATGTGGGAATTTCTAGTTCCCACAGCGAACGTGATGCGGAGTCACCTAGTGCAG | 3550 fluorescence intensity (a.u.)
12 | ACCGGTAAGCCCAAAAGAAAGGATAGAGAGAGCGATGGGCCGGAGTCACCTAGTGCAG | 3320 fluorescence intensity (a.u.)
13 | AATTTTATCATAGAACTACAGATTTAAGGTAAAATATCGCCGGAGTCACCTAGTGCAG | 3220 fluorescence intensity (a.u.)
14 | CATGAAGCCAACAATGACATCATCCATCTCCATCAACTGACGGAGTCACCTAGTGCAG | 4830 fluorescence intensity (a.u.)
15 | ATGGATTCTTGCAATCTTGATTGGTTTATAGTAGTACTTGCGGAGTCACCTAGTGCAG | 3980 fluorescence intensity (a.u.)
16 | TAAGAAAACTACAGCTTTATTACTCAAACTTAATATTAACCGGAGTCACCTAGTGCAG | 39800 fluorescence intensity (a.u.)
17 | TCCTTGACTTCTCGAGAAGGGATATCGTGGCGTTTTCACCCGGAGTCACCTAGTGCAG | 3560 fluorescence intensity (a.u.)
18 | CTAAAATGGCAAAGTGACGGCGCGCTCTCCGTATTGGCATCGGAGTCACCTAGTGCAG | 3210 fluorescence intensity (a.u.)
19 | GAGAGATAGTACAAGATGGGAGGGAGAGAGAGAGAGAGAGCGGAGTCACCTAGTGCAG | 4150 fluorescence intensity (a.u.)
20 | AACAAAATACATGTGCATCAACCATTTTGTTGCATATCACCGGAGTCACCTAGTGCAG | 28600 fluorescence intensity (a.u.)
21 | GACGCCCTTCTCGAGGAACGCCGACACGGTGCGCGGCCCCCGGAGTCACCTAGTGCAG | 3610 fluorescence intensity (a.u.)

Looked up above:
For binding signal, GCGGGCCTCGCGGCCACATCCATCAAACCACGGGAAAGATCGGAGTCACCTAGTGCAG shows 3460 fluorescence intensity (a.u.)
For binding signal, CCAAAATTACCATCTCATGACTCATTCCTTCAATCATCATCGGAGTCACCTAGTGCAG shows 9710 fluorescence intensity (a.u.)

More records.

Row | Sequence | binding signal
22 | GGCTACAATTCCACGCTACAAATGTAAGTTGCAATACATTCGGAGTCACCTAGTGCAG | 3180 fluorescence intensity (a.u.)
23 | GTTAATATTATCCTCGTTCATTTTCACACTCTTCTAAAAGCGGAGTCACCTAGTGCAG | 4700 fluorescence intensity (a.u.)
24 | CAGTTAATAGAATAGAAAGGTGATGTGGTCCCGCACCTGACGGAGTCACCTAGTGCAG | 3570 fluorescence intensity (a.u.)
25 | AGTAGATAGTTAGGGCGATAGCAATGCGTCACAAGTATTTCGGAGTCACCTAGTGCAG | 5040 fluorescence intensity (a.u.)
26 | GTATATACTTGATCTGGTACGAGTCATTATGGCCAGCTCACGGAGTCACCTAGTGCAG | 4350 fluorescence intensity (a.u.)
27 | GTGTCACCTTTGTGCTTTGTTGGCATCAGTAGTATGGATACGGAGTCACCTAGTGCAG | 3760 fluorescence intensity (a.u.)
28 | CCTACCTGAAAACTTCACTGCTCACTCCAGAATTCAGATACGGAGTCACCTAGTGCAG | 18400 fluorescence intensity (a.u.)
29 | ATTGAAAAGTTTGGTTCAAATTAAAATTTTAGTAACAAAACGGAGTCACCTAGTGCAG | 24300 fluorescence intensity (a.u.)
30 | TACCAGATGAACTCTTTCCAATAATGTGATTGCCGGTGTTCGGAGTCACCTAGTGCAG | 21600 fluorescence intensity (a.u.)
31 | GTCCCTATCACATCGGATGTTTGAACAAAACAGAATATACCGGAGTCACCTAGTGCAG | 45600 fluorescence intensity (a.u.)
32 | AAATGGATGATAAGTATAATTACTTAGAGCAAGTTTAATACGGAGTCACCTAGTGCAG | 65500 fluorescence intensity (a.u.)
33 | CCTCGGCTCCCATCCACTACCGTTTGCTACTCCGGCGCCGCGGAGTCACCTAGTGCAG | 3230 fluorescence intensity (a.u.)
34 | GGGGAATACGCTTCATCCATGGGTTTACGAACAGATAATACGGAGTCACCTAGTGCAG | 3960 fluorescence intensity (a.u.)
35 | ATTTAATAGTCCGGGAGGCATGCTTACGGACAAGGACGAACGGAGTCACCTAGTGCAG | 47100 fluorescence intensity (a.u.)
36 | TTTAATGTTAGAGATACAGGTGGTGATGTGTAATTTTGTCCGGAGTCACCTAGTGCAG | 5960 fluorescence intensity (a.u.)
37 | GTACTCCGACGACTCGCCGCCGTCGACGCGGGCCCCGGCCCGGAGTCACCTAGTGCAG | 3650 fluorescence intensity (a.u.)
38 | AAGCGAACTCCCACAGTAAATTTCATCTTAGCTAAATCATCGGAGTCACCTAGTGCAG | 3580 fluorescence intensity (a.u.)
39 | GTCATTGCTGATAGTTGTTTTATCCCTATCAGTTAGCGTCCGGAGTCACCTAGTGCAG | 24500 fluorescence intensity (a.u.)
40 | TAAATCTATGTGTGTGGACGTAGCAGTTCATGTTCATGCTCGGAGTCACCTAGTGCAG | 3520 fluorescence intensity (a.u.)
41 | TTCCTCCATCTTGACGTGGGACCCACCTGGAGATTCATCTCGGAGTCACCTAGTGCAG | 4710 fluorescence intensity (a.u.)
42 | CATAAGTGTTCATGCTTTCTCCATCATGCTGGAGCCTGTACGGAGTCACCTAGTGCAG | 3880 fluorescence intensity (a.u.)
